{"source": "patent CN116710484A", "target": "T1, mouse recombinant WARS1 protein (mouse) (UniProt P32921)", "T1 sequence (looked up)": "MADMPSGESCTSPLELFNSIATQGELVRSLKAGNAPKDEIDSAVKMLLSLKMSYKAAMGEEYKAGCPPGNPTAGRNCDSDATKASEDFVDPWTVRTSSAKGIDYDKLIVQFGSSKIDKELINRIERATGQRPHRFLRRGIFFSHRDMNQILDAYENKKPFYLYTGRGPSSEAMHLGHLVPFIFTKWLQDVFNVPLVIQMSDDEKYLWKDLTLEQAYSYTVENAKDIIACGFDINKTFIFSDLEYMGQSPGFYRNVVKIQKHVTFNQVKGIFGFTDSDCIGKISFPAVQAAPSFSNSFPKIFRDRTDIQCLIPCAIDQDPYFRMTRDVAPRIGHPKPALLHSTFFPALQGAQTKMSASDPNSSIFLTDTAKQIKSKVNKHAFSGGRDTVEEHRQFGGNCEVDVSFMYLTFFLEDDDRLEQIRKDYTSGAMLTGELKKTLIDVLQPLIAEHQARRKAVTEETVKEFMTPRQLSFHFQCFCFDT", "assay": "immunoblot, recombinant mouse WARS1 and J774.1A culture supernatant", "note": "No constants are given. Whether binding was seen depends on the method and setting. Some results given as binding are weak or reduced against the parent protein; the word gives no strength."}
{"binder": "GKB101 (antibody, V domains shown) VH: EVQLLESGGGLVQPGGSLRLSCAASGFTFSSYDMSWVRQAPGKGLEWVSAISSGGSSIYYADSVKGRFTISRDNSKNTLYLQMNSLRAEDTAVYYCARDVAWDMLGDFDYWGQGTLVTVSS VL: QSVLTQPPSASGTPGQRVTISCTGSSSNIGSNYVYWYQQLPGTAPKLLIYANSHRPSGVPDRFSGSKSGTSASLAISGLRSEDEADYYCGAWDDSLSAYVFGGGTKLTV", "values": [{"measurement": "binding", "result": "binds"}]}
